These results are taken from publication PMC8836657.

Chains of the proteins cited; added tags and fusions are not shown.
UniProt P17096: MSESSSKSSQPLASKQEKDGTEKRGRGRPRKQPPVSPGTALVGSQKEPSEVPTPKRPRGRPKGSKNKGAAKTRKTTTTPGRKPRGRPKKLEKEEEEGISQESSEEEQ
UniProt Q93008: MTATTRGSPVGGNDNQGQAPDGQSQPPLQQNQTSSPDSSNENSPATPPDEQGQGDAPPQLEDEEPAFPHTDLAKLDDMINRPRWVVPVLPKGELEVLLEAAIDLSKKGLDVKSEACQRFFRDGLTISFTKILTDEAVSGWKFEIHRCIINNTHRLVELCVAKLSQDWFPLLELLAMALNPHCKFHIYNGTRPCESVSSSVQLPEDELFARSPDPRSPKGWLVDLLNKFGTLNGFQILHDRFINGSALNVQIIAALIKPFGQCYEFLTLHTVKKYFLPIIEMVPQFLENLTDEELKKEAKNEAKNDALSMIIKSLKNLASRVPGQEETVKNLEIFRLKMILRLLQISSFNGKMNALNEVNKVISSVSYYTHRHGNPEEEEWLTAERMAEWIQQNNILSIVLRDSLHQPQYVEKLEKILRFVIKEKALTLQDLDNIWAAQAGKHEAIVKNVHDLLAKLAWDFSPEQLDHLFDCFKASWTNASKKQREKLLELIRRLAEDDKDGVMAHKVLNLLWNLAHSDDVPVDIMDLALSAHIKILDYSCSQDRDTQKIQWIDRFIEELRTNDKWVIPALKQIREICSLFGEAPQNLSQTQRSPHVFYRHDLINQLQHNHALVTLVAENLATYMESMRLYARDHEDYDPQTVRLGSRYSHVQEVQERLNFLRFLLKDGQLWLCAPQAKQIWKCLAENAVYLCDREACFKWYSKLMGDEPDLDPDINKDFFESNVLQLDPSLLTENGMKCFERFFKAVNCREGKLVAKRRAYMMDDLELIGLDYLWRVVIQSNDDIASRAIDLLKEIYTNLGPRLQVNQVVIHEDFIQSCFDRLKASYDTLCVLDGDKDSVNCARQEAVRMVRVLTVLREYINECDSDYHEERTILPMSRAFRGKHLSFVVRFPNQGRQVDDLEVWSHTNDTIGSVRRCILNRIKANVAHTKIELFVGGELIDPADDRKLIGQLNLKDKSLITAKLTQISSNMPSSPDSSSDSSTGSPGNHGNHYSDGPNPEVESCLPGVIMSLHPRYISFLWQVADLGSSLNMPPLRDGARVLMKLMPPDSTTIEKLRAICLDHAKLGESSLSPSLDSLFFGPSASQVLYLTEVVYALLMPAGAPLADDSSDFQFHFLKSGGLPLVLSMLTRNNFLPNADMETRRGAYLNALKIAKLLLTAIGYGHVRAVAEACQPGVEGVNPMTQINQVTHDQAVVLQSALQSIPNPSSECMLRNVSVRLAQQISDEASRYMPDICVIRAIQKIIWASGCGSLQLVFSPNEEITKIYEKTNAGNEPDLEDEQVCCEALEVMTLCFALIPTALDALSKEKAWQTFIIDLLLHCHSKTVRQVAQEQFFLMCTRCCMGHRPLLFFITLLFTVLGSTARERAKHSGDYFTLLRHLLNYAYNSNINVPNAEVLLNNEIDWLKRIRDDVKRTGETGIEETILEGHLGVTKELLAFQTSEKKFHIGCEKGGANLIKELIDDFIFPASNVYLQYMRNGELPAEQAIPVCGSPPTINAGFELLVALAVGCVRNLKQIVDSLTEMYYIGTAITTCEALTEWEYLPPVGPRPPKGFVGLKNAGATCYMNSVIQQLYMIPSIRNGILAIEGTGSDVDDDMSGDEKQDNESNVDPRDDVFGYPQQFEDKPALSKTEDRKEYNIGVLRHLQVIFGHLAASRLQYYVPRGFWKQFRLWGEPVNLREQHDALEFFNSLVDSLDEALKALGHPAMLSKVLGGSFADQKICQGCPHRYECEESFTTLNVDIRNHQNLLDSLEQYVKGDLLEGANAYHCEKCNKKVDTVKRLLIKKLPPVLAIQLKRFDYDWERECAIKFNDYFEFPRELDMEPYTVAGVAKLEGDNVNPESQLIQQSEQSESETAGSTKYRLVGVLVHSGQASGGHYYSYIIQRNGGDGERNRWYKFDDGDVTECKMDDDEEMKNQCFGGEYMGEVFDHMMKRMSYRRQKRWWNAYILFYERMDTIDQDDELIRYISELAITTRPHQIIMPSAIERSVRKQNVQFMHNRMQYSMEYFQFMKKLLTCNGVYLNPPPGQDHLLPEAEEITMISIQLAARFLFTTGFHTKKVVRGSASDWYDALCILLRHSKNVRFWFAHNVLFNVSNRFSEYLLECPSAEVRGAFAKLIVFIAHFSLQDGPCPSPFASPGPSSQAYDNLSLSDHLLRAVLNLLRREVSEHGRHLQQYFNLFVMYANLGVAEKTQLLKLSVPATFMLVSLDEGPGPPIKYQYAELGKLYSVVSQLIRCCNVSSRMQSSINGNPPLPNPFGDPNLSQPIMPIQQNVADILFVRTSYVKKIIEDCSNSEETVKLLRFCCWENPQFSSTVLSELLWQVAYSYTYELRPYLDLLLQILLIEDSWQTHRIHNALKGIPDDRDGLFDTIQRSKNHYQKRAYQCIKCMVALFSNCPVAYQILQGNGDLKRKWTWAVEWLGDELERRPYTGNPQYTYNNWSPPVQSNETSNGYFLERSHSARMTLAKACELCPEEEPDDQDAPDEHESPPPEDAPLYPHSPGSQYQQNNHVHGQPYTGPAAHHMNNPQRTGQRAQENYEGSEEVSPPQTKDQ
UniProt Q93009: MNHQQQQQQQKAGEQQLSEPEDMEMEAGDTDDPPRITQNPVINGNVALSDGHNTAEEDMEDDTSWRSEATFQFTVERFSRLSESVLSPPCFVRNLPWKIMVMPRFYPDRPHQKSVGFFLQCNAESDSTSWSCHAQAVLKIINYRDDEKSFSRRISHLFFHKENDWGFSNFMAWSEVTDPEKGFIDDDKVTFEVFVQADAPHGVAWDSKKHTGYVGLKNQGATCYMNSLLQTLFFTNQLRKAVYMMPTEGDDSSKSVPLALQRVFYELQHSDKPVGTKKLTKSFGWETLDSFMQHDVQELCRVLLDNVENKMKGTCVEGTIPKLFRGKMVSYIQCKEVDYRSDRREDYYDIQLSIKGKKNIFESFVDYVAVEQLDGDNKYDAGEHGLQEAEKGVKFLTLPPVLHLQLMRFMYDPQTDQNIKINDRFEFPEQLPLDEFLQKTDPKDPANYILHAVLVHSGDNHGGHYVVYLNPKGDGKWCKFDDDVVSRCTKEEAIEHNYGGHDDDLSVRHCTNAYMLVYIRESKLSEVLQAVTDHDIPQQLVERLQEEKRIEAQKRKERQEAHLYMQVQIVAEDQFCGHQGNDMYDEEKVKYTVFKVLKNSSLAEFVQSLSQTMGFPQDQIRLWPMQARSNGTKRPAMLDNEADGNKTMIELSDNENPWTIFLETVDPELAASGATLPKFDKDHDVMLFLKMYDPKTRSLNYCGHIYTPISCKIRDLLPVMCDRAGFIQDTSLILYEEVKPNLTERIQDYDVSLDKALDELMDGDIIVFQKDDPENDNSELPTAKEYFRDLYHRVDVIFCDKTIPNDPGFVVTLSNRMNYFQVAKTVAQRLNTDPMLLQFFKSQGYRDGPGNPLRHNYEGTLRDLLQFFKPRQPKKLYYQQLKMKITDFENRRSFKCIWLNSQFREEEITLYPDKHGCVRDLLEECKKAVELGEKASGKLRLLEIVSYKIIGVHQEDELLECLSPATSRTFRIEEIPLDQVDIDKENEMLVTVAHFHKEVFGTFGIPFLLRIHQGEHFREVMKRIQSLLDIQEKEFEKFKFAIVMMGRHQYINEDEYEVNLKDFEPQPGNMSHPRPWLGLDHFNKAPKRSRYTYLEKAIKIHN

No constants are given. Whether binding was seen depends on the method and setting. In cells and extracts the contact can be indirect. Here binding means that the protein was enriched with, or labelled near, the bait; the list need not be complete.

The target of this assay is Flag-HMGA1 (high mobility group A1) (UniProt P17096). The assay is described as follows: affinity purification with mass spectrometry; Flag-HMGA1 in HEK-293T cells, combined with mass spectrometry; called an earlier experiment of the laboratory.

On to “Ubiquitin-specific peptidase 9 (from UniProt Q93008 1-2554) (enzyme)”, for which the binding entry is given as “binds”.

Take “ubiquitin-specific peptidase 7, endogenous (from UniProt Q93009 1-1102) (enzyme)”: the binding entry is reported as “binds”.
